According to PMC13132546:
No constants are given. Whether binding was seen depends on the method and setting. Binding seen in cells or lysates may run through a third protein. These calls come from enrichment with a bait or labelling near it, and not all partners need be listed.

Sequences of proteins named here, by UniProt entry; tags and fusion partners are left off.
UniProt Q9NYF3: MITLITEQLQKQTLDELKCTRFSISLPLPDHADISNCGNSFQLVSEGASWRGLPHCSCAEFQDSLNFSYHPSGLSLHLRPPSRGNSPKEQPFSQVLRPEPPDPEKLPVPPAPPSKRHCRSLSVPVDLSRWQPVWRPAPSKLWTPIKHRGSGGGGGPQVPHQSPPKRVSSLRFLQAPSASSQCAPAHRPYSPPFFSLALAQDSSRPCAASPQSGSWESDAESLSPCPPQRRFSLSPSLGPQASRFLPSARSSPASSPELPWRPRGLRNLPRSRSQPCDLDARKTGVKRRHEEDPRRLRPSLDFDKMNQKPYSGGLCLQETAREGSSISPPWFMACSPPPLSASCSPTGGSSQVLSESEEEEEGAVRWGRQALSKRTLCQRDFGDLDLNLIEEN

Molecular target: LAP-tagged FAM53C (GFP- and S-tagged) (UniProt Q9NYF3)
Assay: affinity purification with mass spectrometry; tandem affinity purification of LAP-tagged FAM53C from HEK-293T lysate (GFP-coupled beads, PreScission cleavage, S-protein agarose; washes with 200 mM KCl, 0.05% NP40), in-gel digestion, LC-MS/MS

- binding: binds
B1: DCAF7 (protein, UniProt P61962 1-342)
chain: MSLHGKRKEIYKYEAPWTVYAMNWSVRPDKRFRLALGSFVEEYNNKVQLVGLDEESSEFICRNTFDHPYPTTKLMWIPDTKGVYPDLLATSGDYLRVWRVGETETRLECLLNNNKNSDFCAPLTSFDWNEVDPYLLGTSSIDTTCTIWGLETGQVLGRVNLVSGHVKTQLIAHDKEVYDIAFSRAGGGRDMFASVGADGSVRMFDLRHLEHSTIIYEDPQHHPLLRLCWNKQDPNYLATMAMDGMEVVILDVRVPCTPVARLNNHRACVNGIAWAPHSSCHICTAADDHQALIWDIQQMPRAIEDPILAYTAEGEINNVQWASTQPDWIAICYNNCLEILRV
